The target in the assay is CdbS-FLAG (Myxococcus xanthus). Description: affinity purification with mass spectrometry.

Results are given in words; binding and its absence hold for the method and conditions named. In cells and extracts the contact can be indirect. Here binding means that the protein was enriched with, or labelled near, the bait; the list need not be complete.

B1: DnaB helicase (protein, UniProt Q1D285 1-456)
chain: MENVHEFREGRKVHEDLAAERAVLGAVLADNTLIAAVGEVVHPEDFSSPAHAQIFEAMLKLDGQSRQVDHLTLAEELKVLGHLVSVGGPAYLMRLDQVVPIASNAVQYAQIVKDQAIRRRLAQAGREIQDLASQETGELEVLLDEAERKVFLLAEKKREGDLRPVSELMEHTLDLLDKMKAAATGITGLSTGYIDLDNQLTGLHAGELIILAARPGIGKTSFAMNIAVHAALKENKAVGIFSLEMPADQLLMRLLASTARVDMKKLRGGRLTPHDEEKFQEMAGALYNAPIYIDDSGGLSPFDLRAKARRVKQRDPRLSLIVIDYLQLMHQKGKVESRQLEVAEISRALKQLAKELEVPIIALSQLSRKVEDRKDGKPLLSDLRESGSIEQDADVVMFIHRETSDEAGPDGQPAQQSNTVIPVELIIAKQRNGPIGSIDLVFLAEYTRFESRSRSE
Take B1: the binding entry is “binds”.

B2: GrpS (protein, UniProt P95333 1-255)
chain: MTVIEVEASGPSTPVEAEASASPADTTSPPSDAEATPSEDVAALRQEVESLKAQLEFSQAKGRETMERLREAHERAKEAQERTVRHAADLENYRKRAQKEKEEVQRFGSEKLLKDLLPVMDNLDRAIDAAAKSPDLDSFEKGVAMTRKSFEDALGRHGVKGFSAKGQVFDPRVHEAIQQVETADVPAGHVAYEVVRGFYLNERLVRPAMVVVARAPAEPVAAAEPPAVAEPATATTDTEAPAAPAQSENSSGGSQ
For the molecule B2, the binding entry is recorded as “binds”.

The values above are taken from doi:10.1101/2023.04.14.536847.
